Experimental data published in publication doi:10.1101/264788.
Results are given in words; binding and its absence hold for the method and conditions named. Binding seen in cells or lysates may run through a third protein. These calls come from enrichment with a bait or labelling near it, and not all partners need be listed.

The chains behind the UniProt entries cited, without tags or fusion partners.
UniProt P50613: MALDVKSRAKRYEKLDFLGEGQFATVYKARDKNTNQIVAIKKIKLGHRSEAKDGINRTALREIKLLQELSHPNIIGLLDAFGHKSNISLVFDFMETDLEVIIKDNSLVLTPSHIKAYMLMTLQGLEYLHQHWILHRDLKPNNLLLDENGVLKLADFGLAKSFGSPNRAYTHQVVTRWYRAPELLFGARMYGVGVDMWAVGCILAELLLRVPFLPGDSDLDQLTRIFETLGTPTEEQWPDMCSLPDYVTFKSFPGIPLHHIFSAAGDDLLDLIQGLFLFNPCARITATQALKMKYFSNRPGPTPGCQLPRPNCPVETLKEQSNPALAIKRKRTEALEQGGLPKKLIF

Target: cyclin-dependent kinase (CDK) 7, MAC-tagged (UniProt P50613)
Assay: affinity purification with mass spectrometry + proximity labelling

B1: ERCC5 (protein, UniProt P28715 1-1186)
chain: MGVQGLWKLLECSGRQVSPEALEGKILAVDISIWLNQALKGVRDRHGNSIENPHLLTLFHRLCKLLFFRIRPIFVFDGDAPLLKKQTLVKRRQRKDLASSDSRKTTEKLLKTFLKRQAIKTAFRSKRDEALPSLTQVRRENDLYVLPPLQEEEKHSSEEEDEKEWQERMNQKQALQEEFFHNPQAIDIESEDFSSLPPEVKHEILTDMKEFTKRRRTLFEAMPEESDDFSQYQLKGLLKKNYLNQHIEHVQKEMNQQHSGHIRRQYEDEGGFLKEVESRRVVSEDTSHYILIKGIQAKTVAEVDSESLPSSSKMHGMSFDVKSSPCEKLKTEKEPDATPPSPRTLLAMQAALLGSSSEEELESENRRQARGRNAPAAVDEGSISPRTLSAIKRALDDDEDVKVCAGDDVQTGGPGAEEMRINSSTENSDEGLKVRDGKGIPFTATLASSSVNSAEEHVASTNEGREPTDSVPKEQMSLVHVGTEAFPISDESMIKDRKDRLPLESAVVRHSDAPGLPNGRELTPASPTCTNSVSKNETHAEVLEQQNELCPYESKFDSSLLSSDDETKCKPNSASEVIGPVSLQETSSIVSVPSEAVDNVENVVSFNAKEHENFLETIQEQQTTESAGQDLISIPKAVEPMEIDSEESESDGSFIEVQSVISDEELQAEFPETSKPPSEQGEEELVGTREGEAPAESESLLRDNSERDDVDGEPQEAEKDAEDSLHEWQDINLEELETLESNLLAQQNSLKAQKQQQERIAATVTGQMFLESQELLRLFGIPYIQAPMEAEAQCAILDLTDQTSGTITDDSDIWLFGARHVYRNFFNKNKFVEYYQYVDFHNQLGLDRNKLINLAYLLGSDYTEGIPTVGCVTAMEILNEFPGHGLEPLLKFSEWWHEAQKNPKIRPNPHDTKVKKKLRTLQLTPGFPNPAVAEAYLKPVVDDSKGSFLWGKPDLDKIREFCQRYFGWNRTKTDESLFPVLKQLDAQQTQLRIDSFFRLAQQEKEDAKRIKSQRLNRAVTCMLRKEKEAAASEIEAVSVAMEKEFELLDKAKGKTQKRGITNTLEESSSLKRKRLSDSKGKNTCGGFLGETCLSESSDGSSSEDAESSSLMNVQRRTAAKEPKTSASDSQNSVKEAPVKNGGATTSSSSDSDDDGGKEKMVLVTARSVFGKKRRKLRRARGRKRKT
In the case of B1, the binding is reported as “binds”.
